PMC9587005, “Phosphatidic Acid Mediates the Nem1-Spo7/Pah1 Phosphatase Cascade in Yeast Lipid Synthesis” (Journal of Lipid Research, 2022)
Results are given in words; binding and its absence hold for the method and conditions named. Binding seen in cells or lysates may run through a third protein. Some entries that bind do so weakly or less than the wild type. Sequences can lack the tags named with a protein.

Molecular target: T1, Protein A-tagged Nem1 (catalytic subunit of the Nem1-Spo7 protein phosphatase complex) (S. cerevisiae) (UniProt P38757)
T1 sequence: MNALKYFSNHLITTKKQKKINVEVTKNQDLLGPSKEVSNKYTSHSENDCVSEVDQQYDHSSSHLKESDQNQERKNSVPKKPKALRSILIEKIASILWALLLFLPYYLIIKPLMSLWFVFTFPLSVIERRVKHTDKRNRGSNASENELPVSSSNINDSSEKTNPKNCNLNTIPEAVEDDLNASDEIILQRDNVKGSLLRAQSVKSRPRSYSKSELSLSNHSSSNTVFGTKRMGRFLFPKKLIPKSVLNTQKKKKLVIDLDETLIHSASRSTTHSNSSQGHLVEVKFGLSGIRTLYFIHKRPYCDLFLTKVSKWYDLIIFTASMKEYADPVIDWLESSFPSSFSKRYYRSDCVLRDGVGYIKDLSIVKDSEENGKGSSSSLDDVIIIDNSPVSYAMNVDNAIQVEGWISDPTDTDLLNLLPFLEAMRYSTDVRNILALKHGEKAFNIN
Assay: pull-down; affinity chromatography with IgG-Sepharose of protein A-tagged Nem1 from S. cerevisiae co-expressing Spo7; Nem1 and Spo7 of the purified complex later detected by Western blotting with anti-protein A and anti-Spo7 antibodies (after reconstitution into liposomes, Sephadex G-50 fractions)

B1: Spo7 (regulatory subunit of the Nem1-Spo7 protein phosphatase complex) (protein, UniProt P18410 1-259)
chain: MEPESIGDVGNHAQDDSASIVSGPRRRSTSKTSSAKNIRNSSNISPASMIFRNLLILEDDLRRQAHEQKILKWQFTLFLASMAGVGAFTFYELYFTSDYVKGLHRVILQFTLSFISITVVLFHISGQYRRTIVIPRRFFTSTNKGIRQFNVKLVKVQSTWDEKYTDSVRFVSRTIAYCNIYCLKKFLWLKDDNAIVKFWKSVTIQSQPRIGAVDVKLVLNPRAFSAEIREGWEIYRDEFWAREGARRRKQAHELRPKSE
binding: binds
